Source: publication PMC4904262 (ACS Medicinal Chemistry Letters, 2016)

Tests used:
[1] = in vitro; settings: mouse, microsomes
[2] = in vitro; settings: rat, microsomes
[3] = in vitro; settings: human, microsomes
[4] = biological target: CDK9/CYCLINT1 (Homo sapiens, UniProt P50750); settings: 1 µM, ATP at Km
[5] = biological target: MAPKAP-K2 (Homo sapiens, UniProt P49137); settings: 1 µM, ATP at Km
[6] = biological target: MAPKAP-K3 (Homo sapiens, UniProt Q16644); settings: 1 µM, ATP at Km
[7] = biological target: PKA (Homo sapiens, UniProt P17612); settings: 1 µM, ATP at Km
[8] = in vivo; settings: mouse, iv, 0.2 mg/kg

## CC(=O)Nc1ccc2c(N)ncc(-c3ccc(-c4cnn(C)c4)cc3)c2c1 [Compound 63]
[1]
  microsomal CLint at 1 µM: 20 µL/min/mg
[2]
  microsomal CLint at 1 µM: 23 µL/min/mg
[3]
  microsomal CLint: < 10 µL/min/mg

## COC1CN(C(=O)c2ccc3c(N)ncc(-c4ccc(-c5cnn(C)c5)cc4)c3c2)C1 [Compound 59]
[4]
  percentage effect: -14%
[5]
  percentage effect: -9%
[6]
  percentage effect: -7%
[7]
  percentage effect: 20%
[8]
  Vd: 1.62 L/kg
  clearance: 26.2 mL/min/kg
[1]
  microsomal CLint at 1 µM: 38 µL/min/mg
[3]
  microsomal CLint: < 10 µL/min/mg
